Sequences of proteins named here, by UniProt entry; tags and fusion partners are left off.
UniProt O14842, whole entry: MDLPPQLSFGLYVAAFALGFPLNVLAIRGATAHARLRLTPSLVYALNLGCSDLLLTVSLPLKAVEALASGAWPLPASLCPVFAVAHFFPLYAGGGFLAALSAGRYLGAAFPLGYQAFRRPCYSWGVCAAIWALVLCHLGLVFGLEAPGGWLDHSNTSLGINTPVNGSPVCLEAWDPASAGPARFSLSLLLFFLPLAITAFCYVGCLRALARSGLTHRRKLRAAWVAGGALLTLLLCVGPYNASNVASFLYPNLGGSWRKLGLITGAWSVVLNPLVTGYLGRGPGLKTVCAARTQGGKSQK

In patent US9920040B2, “GPR40 agonists for the treatment of type II diabetes” (Janssen Pharmaceutica NV, priority 2015, dated 2018):

Molecular target: human GPR40 (Homo sapiens, UniProt O14842)
Test: GPR40 calcium flux assay, human GPR40
Details: read-out: hGPR40 Ca^2+ Assay EC50; transfected HEK293 cells stably expressing human GPR40; multiple values = repeated testing
Protocol: Compounds were tested in a calcium flux assay using transfected HEK293 cells stably expressing either human GPR40 or rat GPR40. Human GPR40 expressing cells were cultured in DMEM-High Glucose media supplemented with 10% fetal bovine serum, 1×L-Glutamine, 1×Penicillin/Streptomycin and 500 μg/mL G418. Rat GPR40 expressing cells were cultured in DMEM-High Glucose media supplemented with 10% fetal bovine serum and 1 μg/mL puromycin. Cells were plated into poly-D-lysine coated 384-well plates and cultured overnight in a 37° C. humidified tissue culture incubator under 5% CO2/[…] atmosphere. On the day of the experiment, the culture media was replaced with assay buffer (HBSS, 20 mM HEPES, 0.1% BSA) and the cells incubated at 37° C. for 1 h. Calcium-sensitive fluorescent dye (Fluo 8 No-Wash Calcium Dye, ABD Bioquest) was then added and the cells incubated for another 30 min at 37° C. followed by 15 min at room temperature while protected from the light. The cell plate and a plate of diluted compounds of Formula (I) were loaded into a fluorescent plate reader that added compounds onto the cells while measuring the fluorescence intensity of each well. The plate reader recorded fluorescence intensity at 1 second intervals for 8 min and provided the data for analysis in an Excel format. EC50 values were calculated using Prism (GraphPad) software.

SMILES: CC1(C)CCC=C1c1c(COc2cccc([C@@H](CC(=O)O)C3CC3)c2)csc1-c1cc(C#N)ccc1F
- EC50: 115 nM and 92 nM

“And” between values parts separate entries of the source, which are not always exact repeats. Equal values may be shown once. The structures given here were assigned with low confidence; some may be wrong.
